Where two headings read alike, the source gives them in different places. Results are given in words; binding and its absence hold for the method and conditions named. Binding seen in cells or lysates may run through a third protein. A yes stands for co-enrichment or nearness to the bait. Other partners may have been found.
Legend:
Test in all cases: affinity purification with mass spectrometry
[1] = target: full length PERK (triple FLAG tagged) (UniProt Q9NZJ5)
[2] = target: full length IRE1 (triple FLAG tagged) (UniProt O75460)
[3] = target: full length PERK (triple FLAG tagged) (UniProt Q9NZJ5); remark: listed apart in the source
[4] = target: full length IRE1 (triple FLAG tagged) (UniProt O75460); remark: listed apart in the source

Protein sequences, listed by entry. Tags and fused reporters are not part of them. Residues count along the entry.
UniProt Q9NZJ5, residues 30-1116: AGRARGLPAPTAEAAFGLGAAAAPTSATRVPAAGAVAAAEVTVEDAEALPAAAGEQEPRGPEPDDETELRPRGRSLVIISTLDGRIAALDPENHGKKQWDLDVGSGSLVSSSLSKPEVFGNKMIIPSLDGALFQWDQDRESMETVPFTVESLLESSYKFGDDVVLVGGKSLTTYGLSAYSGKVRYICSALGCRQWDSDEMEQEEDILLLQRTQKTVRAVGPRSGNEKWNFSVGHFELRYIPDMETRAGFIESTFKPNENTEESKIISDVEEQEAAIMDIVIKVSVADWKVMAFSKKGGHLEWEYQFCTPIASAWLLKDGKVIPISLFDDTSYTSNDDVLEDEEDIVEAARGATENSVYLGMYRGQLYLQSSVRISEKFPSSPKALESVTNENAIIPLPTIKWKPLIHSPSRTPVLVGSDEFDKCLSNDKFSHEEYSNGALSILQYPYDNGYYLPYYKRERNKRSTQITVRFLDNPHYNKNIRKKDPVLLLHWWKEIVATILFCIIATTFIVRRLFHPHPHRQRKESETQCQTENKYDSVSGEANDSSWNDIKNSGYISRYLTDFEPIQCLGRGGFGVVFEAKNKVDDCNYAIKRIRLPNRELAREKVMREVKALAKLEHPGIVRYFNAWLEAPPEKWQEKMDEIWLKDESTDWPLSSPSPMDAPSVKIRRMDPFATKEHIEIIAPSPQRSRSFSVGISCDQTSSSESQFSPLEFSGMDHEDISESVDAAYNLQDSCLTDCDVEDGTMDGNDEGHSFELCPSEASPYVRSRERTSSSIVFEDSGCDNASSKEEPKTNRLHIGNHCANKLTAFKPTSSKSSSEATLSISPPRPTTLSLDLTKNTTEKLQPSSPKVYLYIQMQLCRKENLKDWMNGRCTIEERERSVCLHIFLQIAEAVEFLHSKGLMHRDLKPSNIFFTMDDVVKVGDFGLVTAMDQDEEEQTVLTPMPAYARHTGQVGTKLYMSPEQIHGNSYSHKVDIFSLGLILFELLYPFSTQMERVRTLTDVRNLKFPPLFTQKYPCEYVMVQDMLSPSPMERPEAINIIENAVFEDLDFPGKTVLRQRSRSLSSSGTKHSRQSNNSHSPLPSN
UniProt O75460, residues 19-977: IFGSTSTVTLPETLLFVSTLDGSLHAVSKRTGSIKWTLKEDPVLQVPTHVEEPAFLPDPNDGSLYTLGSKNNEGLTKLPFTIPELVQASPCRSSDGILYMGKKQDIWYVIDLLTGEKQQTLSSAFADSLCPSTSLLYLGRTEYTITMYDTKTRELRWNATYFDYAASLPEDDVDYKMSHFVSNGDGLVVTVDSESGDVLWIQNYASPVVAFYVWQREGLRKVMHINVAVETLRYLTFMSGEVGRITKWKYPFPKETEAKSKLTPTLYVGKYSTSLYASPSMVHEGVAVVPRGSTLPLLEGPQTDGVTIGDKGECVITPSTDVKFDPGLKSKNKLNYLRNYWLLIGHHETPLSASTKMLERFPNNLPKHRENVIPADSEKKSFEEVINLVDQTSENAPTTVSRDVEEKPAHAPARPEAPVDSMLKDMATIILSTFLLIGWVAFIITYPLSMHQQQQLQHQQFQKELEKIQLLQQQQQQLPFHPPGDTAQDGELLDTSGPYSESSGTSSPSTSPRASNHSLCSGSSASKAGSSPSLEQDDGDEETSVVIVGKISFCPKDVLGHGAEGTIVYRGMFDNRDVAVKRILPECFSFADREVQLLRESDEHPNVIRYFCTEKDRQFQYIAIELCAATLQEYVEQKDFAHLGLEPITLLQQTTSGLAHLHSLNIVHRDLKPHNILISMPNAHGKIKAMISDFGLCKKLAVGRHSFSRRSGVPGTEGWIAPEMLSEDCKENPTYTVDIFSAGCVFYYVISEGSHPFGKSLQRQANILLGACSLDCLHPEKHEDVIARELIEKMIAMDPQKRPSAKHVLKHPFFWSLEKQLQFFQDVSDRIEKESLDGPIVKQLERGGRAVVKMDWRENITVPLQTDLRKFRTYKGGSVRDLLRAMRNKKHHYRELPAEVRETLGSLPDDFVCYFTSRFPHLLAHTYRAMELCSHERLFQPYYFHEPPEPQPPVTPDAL
UniProt Q14573: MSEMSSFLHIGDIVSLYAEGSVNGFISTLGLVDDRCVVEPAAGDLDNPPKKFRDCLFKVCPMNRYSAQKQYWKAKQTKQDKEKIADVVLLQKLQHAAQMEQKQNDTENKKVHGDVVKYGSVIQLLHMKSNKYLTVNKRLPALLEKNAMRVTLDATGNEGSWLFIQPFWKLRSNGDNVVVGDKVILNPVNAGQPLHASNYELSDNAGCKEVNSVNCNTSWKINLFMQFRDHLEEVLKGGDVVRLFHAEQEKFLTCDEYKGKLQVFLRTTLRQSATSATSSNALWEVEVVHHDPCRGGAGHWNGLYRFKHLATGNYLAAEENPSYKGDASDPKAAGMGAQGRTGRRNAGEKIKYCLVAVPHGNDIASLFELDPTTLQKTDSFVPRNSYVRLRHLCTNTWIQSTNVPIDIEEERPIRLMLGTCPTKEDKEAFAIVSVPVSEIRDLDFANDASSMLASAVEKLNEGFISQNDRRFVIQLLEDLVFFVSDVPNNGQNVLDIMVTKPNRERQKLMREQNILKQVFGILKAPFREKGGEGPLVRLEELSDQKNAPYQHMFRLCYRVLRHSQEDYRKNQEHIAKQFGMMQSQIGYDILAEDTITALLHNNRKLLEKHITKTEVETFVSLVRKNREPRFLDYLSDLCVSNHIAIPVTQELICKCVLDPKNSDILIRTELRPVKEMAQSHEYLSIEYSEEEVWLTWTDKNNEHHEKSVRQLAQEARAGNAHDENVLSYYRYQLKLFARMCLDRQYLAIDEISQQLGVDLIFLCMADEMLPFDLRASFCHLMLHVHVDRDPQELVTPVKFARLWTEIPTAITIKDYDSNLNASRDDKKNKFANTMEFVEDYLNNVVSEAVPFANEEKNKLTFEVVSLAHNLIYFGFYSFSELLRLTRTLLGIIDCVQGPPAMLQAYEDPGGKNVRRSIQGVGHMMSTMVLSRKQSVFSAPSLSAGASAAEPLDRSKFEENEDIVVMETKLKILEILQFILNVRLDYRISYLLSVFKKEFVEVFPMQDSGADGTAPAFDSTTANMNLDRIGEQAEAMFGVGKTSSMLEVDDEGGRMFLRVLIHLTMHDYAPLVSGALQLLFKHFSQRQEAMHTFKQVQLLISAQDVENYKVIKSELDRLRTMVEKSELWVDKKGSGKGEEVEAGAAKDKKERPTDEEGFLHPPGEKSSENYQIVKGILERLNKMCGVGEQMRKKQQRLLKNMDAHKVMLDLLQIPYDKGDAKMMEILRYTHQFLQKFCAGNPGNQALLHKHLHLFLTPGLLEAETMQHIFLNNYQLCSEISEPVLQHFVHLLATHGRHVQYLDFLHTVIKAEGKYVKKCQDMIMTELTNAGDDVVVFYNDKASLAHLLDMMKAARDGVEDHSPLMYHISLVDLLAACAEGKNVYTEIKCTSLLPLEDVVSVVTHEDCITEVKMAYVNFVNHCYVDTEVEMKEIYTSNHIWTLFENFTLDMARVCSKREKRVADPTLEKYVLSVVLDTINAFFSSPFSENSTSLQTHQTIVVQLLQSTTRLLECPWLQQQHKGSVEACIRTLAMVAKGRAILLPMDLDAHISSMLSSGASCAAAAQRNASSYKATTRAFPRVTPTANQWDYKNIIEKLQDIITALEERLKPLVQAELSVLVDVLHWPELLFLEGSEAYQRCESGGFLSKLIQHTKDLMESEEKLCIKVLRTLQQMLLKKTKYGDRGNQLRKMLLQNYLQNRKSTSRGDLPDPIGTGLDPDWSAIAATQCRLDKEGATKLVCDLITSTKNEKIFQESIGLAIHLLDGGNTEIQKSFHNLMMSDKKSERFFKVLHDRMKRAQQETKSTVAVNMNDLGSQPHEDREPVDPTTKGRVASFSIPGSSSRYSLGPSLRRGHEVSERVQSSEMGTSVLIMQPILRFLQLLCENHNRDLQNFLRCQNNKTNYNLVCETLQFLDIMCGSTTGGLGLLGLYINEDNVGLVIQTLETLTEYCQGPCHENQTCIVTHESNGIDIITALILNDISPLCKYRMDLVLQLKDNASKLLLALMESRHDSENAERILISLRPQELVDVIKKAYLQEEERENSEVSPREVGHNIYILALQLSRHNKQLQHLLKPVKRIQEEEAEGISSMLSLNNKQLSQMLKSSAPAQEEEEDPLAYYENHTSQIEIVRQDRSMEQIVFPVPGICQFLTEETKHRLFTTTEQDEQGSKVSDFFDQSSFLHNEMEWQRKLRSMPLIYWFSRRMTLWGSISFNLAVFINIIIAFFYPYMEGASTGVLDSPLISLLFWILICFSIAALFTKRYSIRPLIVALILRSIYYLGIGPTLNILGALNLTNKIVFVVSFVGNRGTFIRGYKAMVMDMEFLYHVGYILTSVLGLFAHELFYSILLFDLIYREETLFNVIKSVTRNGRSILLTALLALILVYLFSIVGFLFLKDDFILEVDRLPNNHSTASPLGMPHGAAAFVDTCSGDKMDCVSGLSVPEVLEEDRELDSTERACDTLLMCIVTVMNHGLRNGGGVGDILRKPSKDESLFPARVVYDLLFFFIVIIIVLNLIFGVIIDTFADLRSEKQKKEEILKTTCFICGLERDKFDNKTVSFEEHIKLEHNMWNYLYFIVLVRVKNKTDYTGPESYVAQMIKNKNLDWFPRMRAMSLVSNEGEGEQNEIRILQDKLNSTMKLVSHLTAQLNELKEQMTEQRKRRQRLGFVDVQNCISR
UniProt P52732: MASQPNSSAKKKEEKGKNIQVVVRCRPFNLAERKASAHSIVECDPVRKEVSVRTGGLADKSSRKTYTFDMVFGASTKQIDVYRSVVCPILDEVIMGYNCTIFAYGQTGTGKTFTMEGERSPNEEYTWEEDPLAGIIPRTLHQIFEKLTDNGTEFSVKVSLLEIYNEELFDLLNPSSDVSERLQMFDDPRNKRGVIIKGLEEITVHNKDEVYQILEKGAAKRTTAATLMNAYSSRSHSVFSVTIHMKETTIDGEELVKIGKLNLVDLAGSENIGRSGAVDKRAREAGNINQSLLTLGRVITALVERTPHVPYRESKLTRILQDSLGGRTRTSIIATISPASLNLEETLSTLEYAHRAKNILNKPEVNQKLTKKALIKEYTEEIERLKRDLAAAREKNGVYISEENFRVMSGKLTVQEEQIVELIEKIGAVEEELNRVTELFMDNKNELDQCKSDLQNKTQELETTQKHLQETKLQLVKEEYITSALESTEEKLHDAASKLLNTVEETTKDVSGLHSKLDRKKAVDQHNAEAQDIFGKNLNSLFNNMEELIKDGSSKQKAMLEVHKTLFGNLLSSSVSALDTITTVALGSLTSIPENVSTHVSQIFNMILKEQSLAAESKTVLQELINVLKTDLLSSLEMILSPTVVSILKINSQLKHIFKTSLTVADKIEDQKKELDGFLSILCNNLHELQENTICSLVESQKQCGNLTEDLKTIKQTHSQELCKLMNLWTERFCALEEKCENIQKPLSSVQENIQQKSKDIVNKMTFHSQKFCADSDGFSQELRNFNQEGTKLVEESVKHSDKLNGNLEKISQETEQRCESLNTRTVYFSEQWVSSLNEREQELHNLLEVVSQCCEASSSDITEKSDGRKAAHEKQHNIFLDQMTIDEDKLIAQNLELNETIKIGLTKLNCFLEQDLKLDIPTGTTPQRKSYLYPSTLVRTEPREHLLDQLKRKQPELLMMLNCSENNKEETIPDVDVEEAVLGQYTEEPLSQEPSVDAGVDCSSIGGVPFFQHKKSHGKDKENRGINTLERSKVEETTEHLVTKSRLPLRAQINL
UniProt Q9UGP8: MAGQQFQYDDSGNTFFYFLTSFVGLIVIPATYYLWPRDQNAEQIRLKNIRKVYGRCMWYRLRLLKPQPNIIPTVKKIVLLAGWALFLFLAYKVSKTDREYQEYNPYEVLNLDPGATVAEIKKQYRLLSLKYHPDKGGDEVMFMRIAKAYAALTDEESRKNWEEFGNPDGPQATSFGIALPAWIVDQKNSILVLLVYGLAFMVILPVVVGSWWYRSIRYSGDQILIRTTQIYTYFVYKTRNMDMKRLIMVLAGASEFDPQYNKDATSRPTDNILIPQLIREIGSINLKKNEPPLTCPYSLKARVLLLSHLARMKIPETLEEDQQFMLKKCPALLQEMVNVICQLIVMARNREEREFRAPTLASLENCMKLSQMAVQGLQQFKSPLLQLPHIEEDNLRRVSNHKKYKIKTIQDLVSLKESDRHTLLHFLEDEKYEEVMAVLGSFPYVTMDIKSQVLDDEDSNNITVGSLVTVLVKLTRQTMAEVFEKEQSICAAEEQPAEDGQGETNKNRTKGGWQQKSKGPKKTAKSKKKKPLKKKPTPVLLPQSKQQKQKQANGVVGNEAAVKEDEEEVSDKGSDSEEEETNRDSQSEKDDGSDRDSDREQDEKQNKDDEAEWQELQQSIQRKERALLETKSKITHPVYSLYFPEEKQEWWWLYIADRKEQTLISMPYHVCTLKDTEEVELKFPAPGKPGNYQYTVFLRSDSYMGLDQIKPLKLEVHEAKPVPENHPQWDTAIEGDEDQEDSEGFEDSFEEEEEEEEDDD

With ECHA (from UniProt P40939 37-763) the binding [1] was “binds”.

With GCN1 (from UniProt Q92616 1-2671) the binding [2] was “binds” and the binding [3] was “binds”.

ITPR3 (from UniProt Q14573 1-2671) was tested, and the binding [4] was “binds”.

In the case of KIF11 (from UniProt P52732 1-1056), the binding [2] is reported as “binds” and the binding [3] is reported as “binds”.

PRKDC (from UniProt P78527 1-4128) was tested, and the binding [1] was “binds”.

For SEC63 (from UniProt Q9UGP8 1-760), the binding [4] was “binds” and the binding [2] was “binds”.

With TERA (from UniProt P55072 1-806) the binding [4] was “binds” and the binding [1] was “binds”.

B1: RPN1 (protein, UniProt P04843 24-607)
chain: ASSEAPPLINEDVKRTVDLSSHLAKVTAEVVLAHLGGGSTSRATSFLLALEPELEARLAHLGVQVKGEDEEENNLEVRETKIKGKSGRFFTVKLPVALDPGAKISVIVETVYTHVLHPYPTQITQSEKQFVVFEGNHYFYSPYPTKTQTMRVKLASRNVESYTKLGNPTRSEDLLDYGPFRDVPAYSQDTFKVHYENNSPFLTITSMTRVIEVSHWGNIAVEENVDLKHTGAVLKGPFSRYDYQRQPDSGISSIRSFKTILPAAAQDVYYRDEIGNVSTSHLLILDDSVEMEIRPRFPLFGGWKTHYIVGYNLPSYEYLYNLGDQYALKMRFVDHVFDEQVIDSLTVKIILPEGAKNIEIDSPYEISRAPDELHYTYLDTFGRPVIVAYKKNLVEQHIQDIVVHYTFNKVLMLQEPLLVVAAFYILFFTVIIYVRLDFSITKDPAAEARMKVACITEQVLTLVNKRIGLYRHFDETVNRYKQSRDISTLNSGKKSLETEHKALTSEIALLQSRLKTEGSDLCDRVSEMQKLDAQVKELVLKSAVEAERLVAGKLKKDTYIENEKLISGKRQELVTKIDHILDAL
In the case of B1, the binding [2] is reported as “binds” and the binding [3] is reported as “binds”.
